Assay results as given in the supplement of paper PMC12595434, “Development of retinoid nuclear receptor pathway antagonists through targeting aldehyde dehydrogenase 1A3” (iScience, 2025).
The other results are listed elsewhere or left out. Single values of this set are uncertain.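 Many melting curves are irregular; where none melted, Tm was taken as 64 °C.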

Amino acid sequences for entries named in this document (tags omitted). A change or cut given only in a name is not applied to a line headed by its entry.
UniProt Q13243: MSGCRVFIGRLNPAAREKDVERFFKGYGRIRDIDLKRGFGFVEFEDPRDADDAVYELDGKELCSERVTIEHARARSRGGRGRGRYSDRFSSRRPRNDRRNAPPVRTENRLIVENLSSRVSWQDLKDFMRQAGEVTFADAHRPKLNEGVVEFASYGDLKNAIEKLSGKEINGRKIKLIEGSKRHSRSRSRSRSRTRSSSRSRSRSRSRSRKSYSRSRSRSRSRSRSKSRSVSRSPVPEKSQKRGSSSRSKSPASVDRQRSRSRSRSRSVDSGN
UniProt Q13630: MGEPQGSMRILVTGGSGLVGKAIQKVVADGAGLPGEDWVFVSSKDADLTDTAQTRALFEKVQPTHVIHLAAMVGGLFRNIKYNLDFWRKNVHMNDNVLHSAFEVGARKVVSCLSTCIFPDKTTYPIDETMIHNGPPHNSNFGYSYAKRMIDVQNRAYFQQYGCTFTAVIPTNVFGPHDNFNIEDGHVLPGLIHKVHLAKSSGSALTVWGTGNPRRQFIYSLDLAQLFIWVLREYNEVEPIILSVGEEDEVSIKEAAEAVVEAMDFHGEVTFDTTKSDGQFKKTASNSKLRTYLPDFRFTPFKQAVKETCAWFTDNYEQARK
UniProt Q13724: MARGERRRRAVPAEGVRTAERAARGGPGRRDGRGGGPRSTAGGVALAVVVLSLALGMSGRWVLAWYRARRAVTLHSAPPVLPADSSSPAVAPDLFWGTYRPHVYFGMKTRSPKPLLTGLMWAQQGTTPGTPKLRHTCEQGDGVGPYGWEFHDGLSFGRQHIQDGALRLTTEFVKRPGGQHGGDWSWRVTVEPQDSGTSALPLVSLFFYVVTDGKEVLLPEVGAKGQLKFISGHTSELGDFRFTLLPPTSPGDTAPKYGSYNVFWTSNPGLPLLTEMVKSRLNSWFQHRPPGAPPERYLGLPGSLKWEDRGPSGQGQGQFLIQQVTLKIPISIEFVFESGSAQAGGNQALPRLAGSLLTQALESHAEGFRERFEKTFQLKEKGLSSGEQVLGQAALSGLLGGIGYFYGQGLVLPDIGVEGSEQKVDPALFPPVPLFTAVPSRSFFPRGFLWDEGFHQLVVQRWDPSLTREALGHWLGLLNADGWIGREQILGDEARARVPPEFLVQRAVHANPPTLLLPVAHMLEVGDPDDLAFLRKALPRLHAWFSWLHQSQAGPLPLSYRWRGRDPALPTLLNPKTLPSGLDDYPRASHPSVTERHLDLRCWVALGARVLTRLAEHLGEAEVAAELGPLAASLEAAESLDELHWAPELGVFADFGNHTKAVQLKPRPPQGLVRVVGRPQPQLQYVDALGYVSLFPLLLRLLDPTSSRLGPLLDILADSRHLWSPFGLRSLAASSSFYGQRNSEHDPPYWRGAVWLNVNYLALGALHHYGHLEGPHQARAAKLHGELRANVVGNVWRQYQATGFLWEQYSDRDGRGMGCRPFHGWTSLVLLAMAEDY
UniProt Q14790: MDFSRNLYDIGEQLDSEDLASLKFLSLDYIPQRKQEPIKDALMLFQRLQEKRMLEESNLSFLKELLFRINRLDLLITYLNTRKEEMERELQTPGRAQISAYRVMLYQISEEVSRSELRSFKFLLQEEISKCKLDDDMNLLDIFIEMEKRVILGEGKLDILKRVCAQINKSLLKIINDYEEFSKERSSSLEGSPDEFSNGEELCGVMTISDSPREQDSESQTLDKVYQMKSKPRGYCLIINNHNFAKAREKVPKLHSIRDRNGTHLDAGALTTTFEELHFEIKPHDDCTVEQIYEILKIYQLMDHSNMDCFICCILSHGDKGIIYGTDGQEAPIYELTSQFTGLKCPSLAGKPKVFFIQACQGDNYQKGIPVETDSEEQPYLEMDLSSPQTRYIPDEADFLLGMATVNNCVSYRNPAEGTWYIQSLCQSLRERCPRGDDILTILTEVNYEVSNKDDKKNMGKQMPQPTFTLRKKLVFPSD
UniProt Q14517: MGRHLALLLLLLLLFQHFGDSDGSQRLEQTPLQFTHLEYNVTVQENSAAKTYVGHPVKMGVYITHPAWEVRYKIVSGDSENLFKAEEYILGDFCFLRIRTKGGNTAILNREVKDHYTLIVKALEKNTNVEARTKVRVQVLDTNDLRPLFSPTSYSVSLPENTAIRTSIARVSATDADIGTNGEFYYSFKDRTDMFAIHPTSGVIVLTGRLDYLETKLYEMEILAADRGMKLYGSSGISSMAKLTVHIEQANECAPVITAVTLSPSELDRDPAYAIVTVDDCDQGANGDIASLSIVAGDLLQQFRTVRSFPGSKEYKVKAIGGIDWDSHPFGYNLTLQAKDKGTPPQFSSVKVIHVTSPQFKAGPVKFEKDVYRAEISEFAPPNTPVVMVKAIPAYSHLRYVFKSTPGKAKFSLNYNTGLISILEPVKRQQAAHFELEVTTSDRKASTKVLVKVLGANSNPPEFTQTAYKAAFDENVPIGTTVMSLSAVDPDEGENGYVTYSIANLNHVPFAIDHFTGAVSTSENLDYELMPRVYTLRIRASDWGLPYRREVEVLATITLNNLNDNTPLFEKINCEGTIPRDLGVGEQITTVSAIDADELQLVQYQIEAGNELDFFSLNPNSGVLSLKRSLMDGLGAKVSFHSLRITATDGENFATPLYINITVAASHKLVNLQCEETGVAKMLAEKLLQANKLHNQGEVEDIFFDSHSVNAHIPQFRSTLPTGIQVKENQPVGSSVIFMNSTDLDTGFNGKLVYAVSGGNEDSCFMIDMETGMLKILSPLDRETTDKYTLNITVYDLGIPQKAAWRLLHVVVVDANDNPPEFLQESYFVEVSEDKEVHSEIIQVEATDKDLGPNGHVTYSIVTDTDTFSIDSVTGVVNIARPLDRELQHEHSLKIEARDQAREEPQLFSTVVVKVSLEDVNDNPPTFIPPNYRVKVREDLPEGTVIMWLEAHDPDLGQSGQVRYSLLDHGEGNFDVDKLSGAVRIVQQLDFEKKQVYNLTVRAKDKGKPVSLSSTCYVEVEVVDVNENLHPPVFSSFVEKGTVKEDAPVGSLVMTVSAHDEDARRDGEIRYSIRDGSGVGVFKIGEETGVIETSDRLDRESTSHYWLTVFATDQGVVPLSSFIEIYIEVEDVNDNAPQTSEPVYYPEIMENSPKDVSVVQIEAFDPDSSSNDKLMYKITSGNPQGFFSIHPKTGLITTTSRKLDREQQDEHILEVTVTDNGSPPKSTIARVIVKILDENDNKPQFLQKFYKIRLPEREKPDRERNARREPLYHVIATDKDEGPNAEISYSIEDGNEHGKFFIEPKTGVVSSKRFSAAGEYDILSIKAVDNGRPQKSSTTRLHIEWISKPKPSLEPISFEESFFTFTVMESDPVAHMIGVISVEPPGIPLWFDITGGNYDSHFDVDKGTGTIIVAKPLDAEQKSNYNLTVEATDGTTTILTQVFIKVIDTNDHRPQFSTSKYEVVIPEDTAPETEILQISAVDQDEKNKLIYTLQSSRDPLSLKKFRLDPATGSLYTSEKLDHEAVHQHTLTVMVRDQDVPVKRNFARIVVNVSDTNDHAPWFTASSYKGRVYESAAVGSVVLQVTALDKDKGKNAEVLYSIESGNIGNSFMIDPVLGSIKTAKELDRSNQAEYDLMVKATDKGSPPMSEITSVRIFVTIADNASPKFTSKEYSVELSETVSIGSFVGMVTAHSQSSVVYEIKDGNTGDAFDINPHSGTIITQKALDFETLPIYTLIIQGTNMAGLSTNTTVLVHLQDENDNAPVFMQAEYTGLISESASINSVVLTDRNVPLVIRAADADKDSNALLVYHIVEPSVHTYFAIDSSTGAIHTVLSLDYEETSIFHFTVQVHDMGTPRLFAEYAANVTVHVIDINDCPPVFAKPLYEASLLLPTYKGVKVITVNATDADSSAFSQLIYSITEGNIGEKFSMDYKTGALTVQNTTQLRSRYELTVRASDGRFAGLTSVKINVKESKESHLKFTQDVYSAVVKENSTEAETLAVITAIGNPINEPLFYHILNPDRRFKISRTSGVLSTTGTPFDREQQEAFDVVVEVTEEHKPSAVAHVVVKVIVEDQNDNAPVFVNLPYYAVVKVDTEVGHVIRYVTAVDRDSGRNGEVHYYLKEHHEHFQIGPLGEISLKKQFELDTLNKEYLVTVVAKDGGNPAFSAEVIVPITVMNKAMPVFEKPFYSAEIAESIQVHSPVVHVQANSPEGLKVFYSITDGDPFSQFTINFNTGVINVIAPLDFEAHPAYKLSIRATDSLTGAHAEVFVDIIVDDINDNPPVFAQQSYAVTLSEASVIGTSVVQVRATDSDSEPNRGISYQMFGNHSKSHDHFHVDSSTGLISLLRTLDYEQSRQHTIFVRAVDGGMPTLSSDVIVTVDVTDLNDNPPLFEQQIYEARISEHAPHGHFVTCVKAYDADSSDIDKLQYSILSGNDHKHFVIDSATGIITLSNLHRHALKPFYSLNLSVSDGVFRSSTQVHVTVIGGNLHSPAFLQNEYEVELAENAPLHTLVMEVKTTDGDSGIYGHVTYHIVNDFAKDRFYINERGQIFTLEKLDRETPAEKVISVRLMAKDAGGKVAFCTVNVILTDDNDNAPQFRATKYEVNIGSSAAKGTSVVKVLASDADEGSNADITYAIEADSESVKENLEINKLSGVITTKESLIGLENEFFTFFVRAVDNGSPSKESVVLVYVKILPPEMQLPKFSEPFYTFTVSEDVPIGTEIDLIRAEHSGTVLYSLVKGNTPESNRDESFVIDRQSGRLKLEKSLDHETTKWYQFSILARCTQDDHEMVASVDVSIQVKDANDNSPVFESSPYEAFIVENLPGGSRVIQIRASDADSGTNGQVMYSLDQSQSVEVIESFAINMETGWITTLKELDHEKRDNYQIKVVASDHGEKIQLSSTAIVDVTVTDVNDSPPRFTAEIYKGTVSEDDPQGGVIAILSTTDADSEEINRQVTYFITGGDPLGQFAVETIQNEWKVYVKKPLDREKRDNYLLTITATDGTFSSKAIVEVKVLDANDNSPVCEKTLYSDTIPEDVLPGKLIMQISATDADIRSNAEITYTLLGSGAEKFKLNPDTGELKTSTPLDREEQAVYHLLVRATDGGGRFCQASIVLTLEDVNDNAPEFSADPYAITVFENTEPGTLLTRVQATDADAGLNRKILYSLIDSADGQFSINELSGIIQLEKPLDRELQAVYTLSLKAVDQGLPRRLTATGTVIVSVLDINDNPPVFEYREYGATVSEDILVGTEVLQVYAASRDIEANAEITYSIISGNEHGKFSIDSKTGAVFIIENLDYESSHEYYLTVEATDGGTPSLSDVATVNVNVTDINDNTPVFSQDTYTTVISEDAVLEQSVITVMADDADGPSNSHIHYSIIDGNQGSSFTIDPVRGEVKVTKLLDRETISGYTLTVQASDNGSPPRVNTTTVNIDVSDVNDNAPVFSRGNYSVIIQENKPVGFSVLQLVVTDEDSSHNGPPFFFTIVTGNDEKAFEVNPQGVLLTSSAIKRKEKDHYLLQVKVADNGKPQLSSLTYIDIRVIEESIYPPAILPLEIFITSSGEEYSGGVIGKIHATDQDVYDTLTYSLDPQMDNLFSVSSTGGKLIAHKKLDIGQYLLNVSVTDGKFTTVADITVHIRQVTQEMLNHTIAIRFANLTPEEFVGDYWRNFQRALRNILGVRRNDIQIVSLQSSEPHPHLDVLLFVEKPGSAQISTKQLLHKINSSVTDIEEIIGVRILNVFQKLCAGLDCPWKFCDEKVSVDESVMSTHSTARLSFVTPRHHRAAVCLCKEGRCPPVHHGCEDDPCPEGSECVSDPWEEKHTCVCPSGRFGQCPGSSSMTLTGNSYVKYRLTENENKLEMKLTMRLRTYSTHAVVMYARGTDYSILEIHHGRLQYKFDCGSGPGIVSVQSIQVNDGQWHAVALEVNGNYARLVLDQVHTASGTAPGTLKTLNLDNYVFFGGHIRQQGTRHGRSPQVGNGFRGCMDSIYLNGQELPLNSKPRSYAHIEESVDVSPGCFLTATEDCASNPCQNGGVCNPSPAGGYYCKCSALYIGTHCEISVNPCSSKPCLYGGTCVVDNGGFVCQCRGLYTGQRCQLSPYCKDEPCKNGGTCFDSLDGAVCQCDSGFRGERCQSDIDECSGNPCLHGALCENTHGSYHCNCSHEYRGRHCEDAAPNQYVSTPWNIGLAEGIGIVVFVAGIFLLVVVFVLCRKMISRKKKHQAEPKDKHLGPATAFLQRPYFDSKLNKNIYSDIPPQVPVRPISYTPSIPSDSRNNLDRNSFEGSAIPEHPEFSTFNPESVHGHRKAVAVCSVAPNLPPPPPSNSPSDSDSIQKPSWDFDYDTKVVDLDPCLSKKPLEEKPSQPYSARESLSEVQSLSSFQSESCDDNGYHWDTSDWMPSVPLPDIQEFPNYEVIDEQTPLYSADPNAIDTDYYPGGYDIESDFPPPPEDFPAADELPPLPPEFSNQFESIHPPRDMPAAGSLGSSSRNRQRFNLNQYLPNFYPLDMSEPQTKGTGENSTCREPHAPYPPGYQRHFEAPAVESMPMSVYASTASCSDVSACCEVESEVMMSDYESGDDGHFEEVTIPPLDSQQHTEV

Compound: CCc1cnccc1C(=O)Nc1cc2c(cc1F)NC(=O)CC2
Assay: melting temperature shift (DMSO Tm minus MBE1-treated Tm) in cellular thermal proteome profiling; higher = less thermal stabilization by MBE1 (negative = stabilized by MBE1)
Details: A375

Target | melting temperature shift (MBE1 concentration: 100 nM) [°C] | melting temperature shift (MBE1 concentration: 1 uM) [°C]
GNL2 (UniProt Q13823) | -0.698 | -0.218
KEAP1 (UniProt Q14145) | 1.15 | -0.11
MLEC (UniProt Q14165) | -1.04 | -0.566
PUM1 (UniProt Q14671) | 0.385 | -0.305
DDX39B (UniProt Q13838) | -0.744 | 0.364
NAA25 (UniProt Q14CX7) | -0.262 | 0.318
SUZ12 (UniProt Q15022) | 0.154 | 0.416
PICALM (UniProt Q13492) | -0.483 | -0.0939
USP4 (UniProt Q13107) | -0.993 | 0.00641
PPIL2 (UniProt Q13356) | -0.902 | -0.432
MRPL28 (UniProt Q13084) | -1.93 | -2.34
PEX6 (UniProt Q13608) | -0.195 | 0.421
GSE1 (UniProt Q14687) | -0.708 | -0.0733
SRSF5 (UniProt Q13243) | -1.46 | -1.69
NME3 (UniProt Q13232) | -4.16 | -2.49
TSTA3 (UniProt Q13630) | -1.02 | -0.56
UniProt Q13938 | 0.11 | 0.0366
POLD3 (UniProt Q15054) | -0.365 | -0.288
ENDOG (UniProt Q14249) | -0.753 | -0.0268
CLINT1 (UniProt Q14677) | 0.00611 | 0.94
MEF2D (UniProt Q14814) | 0.0134 | 0.174

Target | melting temperature shift (MBE1 concentration: 100 nM) [°C] | melting temperature shift (MBE1 concentration: 1 uM) [°C]
UBE4A (UniProt Q14139) | -0.809 | -0.889
ROCK1 (UniProt Q13464) | 1.06 | 0.0977
ZNF638 (UniProt Q14966) | -1.31 | -1.16
KIAA0101 (UniProt Q15004) | 0.946 | 2.73
UniProt Q13905 | 0.11 | 0.395
MELK (UniProt Q14680) | -1.59 | -0.703
UniProt Q14699 | -0.168 | 0.0939
MOGS (UniProt Q13724) | -0.122 | 0.409
CUL2 (UniProt Q13617) | -0.49 | 0.208
ESPL1 (UniProt Q14674) | -0.917 | -1.09
HLTF (UniProt Q14527) | 0.208 | -0.507
SART3 (UniProt Q15020) | 0.263 | -0.0366
TUBB2A (UniProt Q13885) | -0.598 | 1.08
UniProt Q13796 | -0.324 | -0.586
SNTB1 (UniProt Q13884) | -1.04 | -0.795
COTL1 (UniProt Q14019) | 0.107 | 0.483
CASP8 (UniProt Q14790) | -0.593 | -0.819
TNIP1 (UniProt Q15025) | -0.153 | 0.0122
UniProt Q13099 | -1.67 | -0.677
FAT1 (UniProt Q14517) | -1.2 | -0.463
NCAPH (UniProt Q15003) | -0.306 | -0.456
